Measured values as given in article PMC7795834.
These are yes or no findings as the source states them, for the method shown. For part of these data: In cells and extracts the contact can be indirect. Some entries that bind do so weakly or less than the wild type. For part of these data: Sequences can lack the tags named with a protein.

T1: OsPYL/RCAR3 (yeast two-hybrid fusion) (rice (Oryza sativa cv. Dongjin)) (UniProt Q6EN42)
T1 sequence: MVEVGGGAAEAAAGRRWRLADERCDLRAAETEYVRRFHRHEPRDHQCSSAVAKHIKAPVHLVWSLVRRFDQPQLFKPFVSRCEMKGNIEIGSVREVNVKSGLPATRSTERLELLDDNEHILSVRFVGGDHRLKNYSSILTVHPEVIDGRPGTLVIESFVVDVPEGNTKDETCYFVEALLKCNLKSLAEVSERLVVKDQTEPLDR

T2: OsPYL/RCAR3-VN (BiFC fusion) (rice (Oryza sativa cv. Dongjin)) (UniProt Q6EN42)
T2 sequence: T1 sequence

T3: OsPYL/RCAR3 (co-immunoprecipitation construct) (rice (Oryza sativa cv. Dongjin)) (UniProt Q6EN42)
T3 sequence: T1 sequence

B1: OsPP2C30 (yeast two-hybrid fusion) (enzyme, UniProt Q84JI0 1-404)
chain: MAEICCEVVAGSSSEGKGPECDTGSRAARRRRMEIRRLRVVAERGAEEETSGKRRRLDGGGGEASTDEEDREVERARYGFTSVCGRRRDMEDSVSACPGFLPGHHFFGVFDGHGCSHVATSCGQRMHEIVVDEAGAAAGSAGLDEEARWRGVMERSFARMDAEAVASSRGSVAPAPTCRCEMQLPKCDHVGSTAVVAVLGPRHVVVANCGDSRAVLCRGGAAIPLSCDHKPDRPDELERIHAAGGRVIFWDGARVFGMLAMSRAIGDSYLKPYVICDPEVRVMERKDGEDEFLILASDGLWDVVSNEVACNVVRACLRSSGRRERNRSSPTSNLSPRQSSSSGDEAPNDGAPSAAAGSESDEESAAEEDKACAEAAVLLTKLALARQTSDNVSVVVVNLRRRKL
B2: OsPP2C06 (yeast two-hybrid fusion) (enzyme, UniProt Q0JLP9 1-467)
chain: MEDVAVAAALAPAPATAPVFSPAAAGLTLIAAAAADPIAAVVAGAMDGVVTVPPVRTASAVEDDAVAPGRGEEGGEASAVGSPCSVTSDCSSVASADFEGVGLGFFGAAADGGAAMVFEDSAASAATVEAEARVAAGARSVFAVECVPLWGHKSICGRRPEMEDAVVAVSRFFDIPLWMLTGNSVVDGLDPMSFRLPAHFFGVYDGHGGAQVANYCRERLHAALVEELSRIEGSVSGANLGSVEFKKKWEQAFVDCFSRVDEEVGGNASRGEAVAPETVGSTAVVAVICSSHIIVANCGDSRAVLCRGKQPVPLSVDHKPNREDEYARIEAEGGKVIQWNGYRVFGVLAMSRSIGDRYLKPWIIPVPEITIVPRAKDDECLVLASDGLWDVMSNEEVCDVARKRILLWHKKNGTNPASAPRSGDSSDPAAEAAAECLSKLALQKGSKDNISVIVVDLKAHRKFKSKS
B3: OsPP2C09 (yeast two-hybrid fusion) (enzyme, UniProt Q5N9N2 1-414)
chain: MAEICCEEAMSPPATATAAVAAAVSASAAAAVSSAIDRRRRRMEMRRIRIASDLELQAGEDGRPGKRQRLARTASGAPRPDEDSASERPSCGRTEEFPRYGVTAVCGRRREMEDAVSIRPDFLPASGKFHFYGVFDGHGCSHVATTCQDRMHEIVAEEHNKGASGEVAPWRDVMEKSFARMDGEVGNRASTRSDDEPACPCEQQTPSRRDHAGSTAVVAVVSPTQVVVANAGDSRAVISRAGVPVALSVDHKPDRPDELERIEAAGGRVIYWDGARVLGVLAMSRAIGDGYLKPYVTSEPEVTVTERTDDDECLILASDGLWDVVTNEMACEVVRACFHNNGPPAPAARPSGVPSSAEAAETENGGAASVKGISKAESSDKACSDAAMLLTKLALARRSADNVSVVVVDLRRGL
B4: OsPP2C30-VN (BiFC fusion) (enzyme, UniProt Q84JI0 1-404)
chain: B1 chain
B5: OsPP2C06-VN (BiFC fusion) (enzyme, UniProt Q0JLP9 1-467)
chain: B2 chain
B6: OsPP2C09-VN (BiFC fusion) (enzyme, UniProt Q5N9N2 1-414)
chain: B3 chain
B7: OsPP2C30 (co-immunoprecipitation construct) (enzyme, UniProt Q84JI0 1-404)
chain: B1 chain
B8: OsPP2C06 (co-immunoprecipitation construct) (enzyme, UniProt Q0JLP9 1-467)
chain: B2 chain
B9: OsPP2C09 (co-immunoprecipitation construct) (enzyme, UniProt Q5N9N2 1-414)
chain: B3 chain

Target: T1, OsPYL/RCAR3 (yeast two-hybrid fusion) (rice (Oryza sativa cv. Dongjin))
Assay: two-hybrid; yeast two-hybrid; interaction seen even in the absence of ABA in the growth medium (Figure S3B)

binding, binds:
B1
B2
B3

Target: T2, OsPYL/RCAR3-VN (BiFC fusion) (rice (Oryza sativa cv. Dongjin))
Assay: split reporter; BiFC with split Venus (VN and VC fusions) in rice protoplasts, PEG-mediated transfection; ER-mCherry as internal control; confocal microscopy

binding, binds:
B4
B5
B6

Target: T3, OsPYL/RCAR3 (co-immunoprecipitation construct) (rice (Oryza sativa cv. Dongjin))
Assay: co-IP; rice protoplasts transfected with GFP and 3xHA fusions, 28 °C for 20 h; extracts in 150 mM NaCl, 50 mM Tris-HCl pH 7.5, 0.5% NP40, 0.5% Triton X-100; GFP-trap beads, 4 °C for 2 h, 5 washes; immunoblot with anti-GFP and anti-HA

binding, binds:
B7
B8
B9
